PubChem BioAssay AID504467 (National Center for Advancing Translational Sciences (NCATS), 2011)
In all, about 330,000 compounds went through this assay and about 7,700 (2.3%) were called active. This list was built around the results that the source calls inconclusive (neither active nor inactive); the mix of calls is not that of the screen. Calls follow the shape of the dose curve; as a rule, active = well fitted inhibition curve with a large enough effect; inconclusive = small, poorly fitted or top-dose-only effect, or effect the other way; inactive = flat fitted curve, though single readings scatter. A potency beside an inconclusive call is a rough fit, not a confirmed value.

Assay: qHTS screen for small molecules that inhibit ELG1-dependent DNA repair in human embryonic kidney (HEK293T) cells expressing luciferase-tagged ELG1; also: nearly all actives have a fitted effect of over 55% in size
Conditions: HEK293T ELG1-luciferase reporter, luminescence, 16 h, DNA damage induced by 5-fluorouridine; series mostly up to 46.1 µM
Procedure, shortened: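 Overnight (16 hr) co-exposure of 2,000 cells/well to 5-fluorouridine and compound at 37 °C preceded detection. Luciferase was quantified via ONE-Glo luminescence; loss of signal denotes inhibition.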
Potency is read from the fitted curve at half-maximal effect.

Structure (SMILES)	Potency
Cc1ccc(S(=O)(=O)N2CCOCC2)cc1NC(=O)COc1ccccc1Cc1ccccc1	active: 8.2 µM
O=C(NNC(=O)c1ccc(Br)o1)c1ccc(NC(=O)c2ccccc2)cc1	inactive
COc1ccc(-c2cc(C(=O)N3CCCCCC3)c3cc(C)ccc3n2)cc1	inactive
COc1ccc(-c2n[nH]c(=S)n2-c2ccc(C)cc2C)cc1	inactive
O=C1CCCN1CCC1CCN(C2CC(=O)N(Cc3ccc(N4CCCC4=O)cc3)C2=O)CC1 (configuration not stated)	inactive
CCN1C(=O)c2ccccc2Sc2ccc(C(=O)NCCCN(CC(C)C)CC(C)C)cc21	inactive
COc1ccc(NC(=S)NCc2ccc(F)cc2)cc1	inactive
O=c1c2ccccc2nc(SCCN2CCOCC2)n1CCc1ccccc1	inconclusive: 29.1 µM [inhibitor, single point]
CCCCOc1ccc(CON(C(C)=O)C(C)=O)cc1Cl	inconclusive: 23.1 µM [activator, partial curve]
C[C@@H]1CC=C[C@H]2[C@H]1C(=O)N(Cc1ccccc1)[C@H]2c1ccc(-c2cc3ccccc3s2)cc1F	inconclusive: 20.6 µM [activator, partial curve]
CCC(=O)NNC(=O)CCC(=O)Nc1ccccc1	inconclusive: 3.16 µM [inhibitor, single point]
CC(=O)c1cccc(NC(=O)C(C)OC(=O)c2cc(C)oc2C)c1 (configuration not stated)	inactive
COc1cc(OC)c(OC)cc1CN1CCN(Cc2cccn2C)CC1	inactive
Cc1ccc(CSc2nnc(-c3ccc(NS(=O)(=O)c4ccccc4)cc3)o2)cc1	inactive
COc1cccc2c(=O)c(C(=O)NCc3cccs3)c[nH]c12	inconclusive: 29.1 µM [activator, partial curve]
O=C(Nc1ccc(-c2cn3ccccc3n2)cc1)c1cccs1	inconclusive: 3.26 µM [activator, full curve]
CN1C(=O)/C(=C/c2ccc(OCc3ccc(C(=O)O)cc3)c(Cl)c2)NC1=S	inactive
O=C(CCn1c(=O)[nH]c2ccccc2c1=O)N1CCN(c2ccc(Cl)cc2)CC1	inactive
Cc1noc(C)c1C(=O)N1CCCC(N2CCN(c3cccc(C(F)(F)F)c3)CC2)C1 (configuration not stated)	inactive
C/C(NC(=O)c1cccc(F)c1)=C1/C(=O)C[C@@H]2[C@H]1C2(C)C	inconclusive: 20.6 µM [activator, partial curve]
O=C(NCCc1ccccc1)c1cc(S(=O)(=O)N2CCOCC2)ccc1F	inconclusive: 25.9 µM [activator, single point]
Cc1ccc2nc(N3C(=O)C(O)=C(C(=O)c4ccco4)C3c3cccs3)sc2c1 (configuration not stated)	inconclusive: 16.4 µM [activator, partial curve]
CCOC(=O)c1c(C)nc2sc3c(=O)n(-c4ccc(C(C)=O)cc4)cnc3c2c1-c1ccc(Cl)cc1	active: 20.6 µM
Cc1cccc(/C=C2\CS/C(=C\c3cccc(C)c3)C2=O)c1	inconclusive: 16.4 µM [activator, partial curve, poor fit]

2 records picked at random from the list so far, as already listed:
Structure (SMILES)	Potency
CC(=O)c1cccc(NC(=O)C(C)OC(=O)c2cc(C)oc2C)c1 (configuration not stated)	inactive
Cc1cccc(/C=C2\CS/C(=C\c3cccc(C)c3)C2=O)c1	inconclusive: 16.4 µM [activator, partial curve, poor fit]

Following part.

Structure (SMILES)	Potency
CCOC(=O)N1CCN(C(=O)CSc2ccc(Cl)cc2)CC1	inconclusive: 20 µM [activator, single point]
COc1cccc(NC(=O)CN2C(=O)c3cccnc3Oc3ccc(Cl)cc32)c1	inconclusive: 29.1 µM [inhibitor, single point]
O=C1CSC(c2ccc(Cl)c(Cl)c2)N1c1nccs1 (configuration not stated)	inconclusive: 18.3 µM [activator, single point]
O=C(CSc1nc2ccccc2c(=O)n1Cc1ccco1)c1ccccc1	inconclusive: 18.4 µM [inhibitor, single point]
COc1ccc(NC(=O)c2ccc(-c3ccccc3)cc2)cc1NS(=O)(=O)c1ccc(F)cc1	inconclusive: 7.31 µM [inhibitor, partial curve]
CC(C)C(NC(=O)c1ccccc1F)C(=O)NCC(c1ccco1)N1CCCCC1 (configuration not stated)	inactive
CS(=O)(=O)c1ccc(Cl)c(NC(=O)CSc2nnc(C3CC3)n2C2CC2)c1	inactive
CCOC(=O)c1c(NC(=O)Nc2cccc(Cl)c2)sc(C)c1C	inconclusive: 1.84 µM [inhibitor, partial curve, poor fit]
CCCCN(C)C(=O)Cn1ncc2c3ccccc3n(CCC)c2c1=O	inactive
CCCCNC(=S)N(C)/N=C/c1ccc(OCC(=O)Nc2c(C)cc(C)cc2C)c(OC)c1	inconclusive: 18.4 µM [inhibitor, partial curve]
Cc1ccc(N(CCCCN2C(=O)c3ccccc3C2=O)C(=O)c2cccc([N+](=O)[O-])c2)cc1	inconclusive: 23.1 µM [inhibitor, single point]
CC(=O)c1cccc(-n2nnnc2SCC(=O)Nc2cccc(NC(=O)c3ccco3)c2)c1	active: 18.4 µM
CC(C)C(=O)Nc1ccc(C(=O)Nc2ccc(Br)cc2F)cc1	inconclusive: 29.1 µM [activator, single point]
NNC(=O)[C@H](Cc1ccccc1)NC(=O)Nc1ccc2c(c1)OCCO2	inactive
Brc1ccc2ncnc(NCc3ccco3)c2c1	active: 8.2 µM
O=C(N/N=C/c1c[nH]c2ccccc12)C1CC1c1ccccc1 (configuration not stated)	inactive
CCOC(=O)CNC(=O)c1ccc(C)cc1	inactive
CC(C)(C)OC(=O)C[C@H]1C/C=C\C[C@@H](CC(=O)NCCO)C(=O)NCCOC1=O	inconclusive: 18.3 µM [activator, partial curve]
Cc1ccc2[nH]c3c(=O)n(CC(=O)Nc4ccccc4N4CCN(C)CC4)ncc3c2c1	inconclusive: 18.3 µM [inhibitor, partial curve, poor fit]
CC(C)CCNC(=O)c1cc(-c2ccco2)nc2ccccc12	inconclusive: 29.1 µM [inhibitor, single point]
Cn1c(SCC(=O)NC2CCCCC2)nnc1-c1ccccn1	inactive
CCOC(=O)c1ccc(-n2c(=O)[nH]c3ccccc3c2=O)cc1	inconclusive: 18.4 µM [activator, single point]
Cc1ccc(C)c(-n2c(Cc3cccs3)n[nH]c2=S)c1	inactive
